# The list does not hold the whole screen: it gathers tests that were run many times, whatever their T/C, doses with no T/C, and many T/C values between a quarter and a half above the control. Further doses and runs are listed elsewhere. T/C is the treated group as % of the vehicle group. Some entries give survivors of the animals treated and no T/C: the source holds a T/C of zero for them, seemingly a mark for toxic or unscored doses. Some doses without a T/C left all or most animals alive at the check, yet need not have been tolerated: survival well below the control is almost never listed, so the zero probably covers shortened survival too. Counts of survivors are from the toxicity check (mostly the fifth day) where no day follows; animals may have died later. Schedules are NCI's codes, read here as Q, the interval in days (D) or hours (H), X, the number of doses. Some entries were tested several times; the results are listed from low to high. For survival time, this PubChem deposit counts one and a half times the control or more as active, and values a quarter to a half above the control carry no call in these data; other NCI protocols may use other cut-offs. Counts like (3×) say how often a value occurs here. Some T/C values carry the count of animals alive at the toxicity check (mostly the fifth day); without a count, all were alive then.
# System: BDF1 mice, P388 leukemia ip, median survival T/C
# Assay: NCI In Vivo Anticancer Drug Screen. Data for tumor model P388 Leukemia (intraperitoneal) in B6D2F1 (BDF1) mice
# Conditions: T/C endpoint: median survival time, higher T/C = longer survival
# Outline: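 Each value expresses how treatment altered survival: treated-mouse outcome over vehicle-mouse outcome, both groups bearing the transplanted tumour.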
# [1] = dose: 1.25 mg/kg/injection, schedule: Q01DX010 (ip), vehicle: saline
# [2] = dose: 2.5 mg/kg/injection, schedule: Q01DX010 (ip), vehicle: saline
# [3] = dose: 22.5 mg/kg/injection, schedule: Q01DX010 (ip), vehicle: saline
# [4] = dose: 25.0 mg/kg/injection, schedule: Q01DX009 (ip), vehicle: Klucel (hydroxypropylcellulose) (HPC)
# [5] = dose: 45.0 mg/kg/injection, schedule: Q01DX010 (ip), vehicle: saline
smiles,measurement,setting,value
O=P1(N(CCCl)CCCl)NCCCO1 (stereo not given),T/C,[1],"90 (2×), 91, 92 (2×), 96, 100 (8×), 109 (2×), 110 (5×), 111, 112, 115 (2×), 115 [5 of 6 alive], 116, 118, 120 (3×), 122, 127, 133 (2×), 134 [5 of 6 alive], 136, 145 % of control"
same,survivor count,[1],4 of 6 and 6 of 6
same,T/C,[2],"90, 92, 100 (6×), 104, 108 (2×), 109 (2×), 111, 113, 116 (2×), 118 (4×), 120 (3×), 122, 125, 125 [5 of 6 alive], 130 [5 of 6 alive], 133 (2×), 135, 136, 138, 140, 141, 146, 150, 153, 154, 160 % of control"
same,survivor count,[2],4 of 4 and 6 of 6
same,T/C,"dose: 5.0 mg/kg/injection, schedule: Q01DX010 (ip), vehicle: saline","125, 137 [5 of 6 alive], 138, 150, 153 [5 of 6 alive], 185, 188, 190 % of control"
same,T/C,"dose: 5.0 mg/kg/injection, schedule: Q01DX010 (ip), vehicle: water",140 % of control
same,T/C,"dose: 5.6 mg/kg/injection, schedule: Q01DX010 (ip), vehicle: saline","127, 136, 140, 144, 231 % of control"
same,T/C,"dose: 10.0 mg/kg/injection, schedule: Q01DX010 (ip), vehicle: saline","153, 176, 177, 180 (2×), 195, 200, 203, 205, 250, 270 % of control"
same,T/C,"dose: 11.2 mg/kg/injection, schedule: Q01DX010 (ip), vehicle: saline","126, 150, 213, 233 % of control"
same,T/C,[3],"177, 181, 254, 316 % of control"
same,survivor count,[3],5 of 6
same,T/C,"dose: 25.0 mg/kg/injection, schedule: Q01DX001 (ip), vehicle: saline",135 % of control
same,T/C,"dose: 25.0 mg/kg/injection, schedule: Q01DX005 (ip), vehicle: Klucel (hydroxypropylcellulose) (HPC), evaluated on day 30","90, 123, 126, 128, 162, 172, 173, 174, 175 (3×), 188, 195, 199, 202, 204 (2×), 210, 215, 219, 221 (2×), 224, 225, 227 (2×), 228, 231 (2×), 235, 241, 247, 254, 262 % of control"
same,T/C,"dose: 25.0 mg/kg/injection, schedule: Q01DX005 (ip), vehicle: Klucel (hydroxypropylcellulose) (HPC), evaluated on day 35",221 % of control
same,T/C,[4],"115, 125, 139, 140, 141, 144, 145, 165, 184, 188, 193 [2 of 2 alive], 203, 205, 209, 214, 215, 216 (2×), 223 (2×), 241, 250, 255, 256, 263, 264, 265, 270, 272, 288 (2×), 294 (2×), 300 % of control"
same,survivor count,[4],2 of 3
same,T/C,"dose: 25.0 mg/kg/injection, schedule: Q08DX002 (ip), vehicle: saline",128 % of control
same,T/C,"dose: 30.0 mg/kg/injection, schedule: Q01DX010 (ip), vehicle: water","140, 240, 272 (2×), 300 % of control (2×)"
same,T/C,"dose: 37.5 mg/kg/injection, schedule: Q01DX001 (ip), vehicle: saline",149 % of control
same,T/C,"dose: 40.0 mg/kg/injection, schedule: Q01DX005 (ip), vehicle: saline, evaluated on day 30","100, 130, 283 % of control"
same,T/C,"dose: 40.0 mg/kg/injection, schedule: Q01DX005 (ip), vehicle: saline, evaluated on day 35",343 % of control (2×)
same,T/C,"dose: 40.0 mg/kg/injection, schedule: Q01DX005 (ip), vehicle: saline, evaluated on day 40",396 % of control
same,T/C,"dose: 40.0 mg/kg/injection, schedule: Q01DX009 (ip), vehicle: saline, evaluated on day 30","130, 160, 283 % of control"
same,T/C,"dose: 40.0 mg/kg/injection, schedule: Q01DX009 (ip), vehicle: saline, evaluated on day 35",343 % of control (2×)
same,T/C,"dose: 40.0 mg/kg/injection, schedule: Q01DX009 (ip), vehicle: saline, evaluated on day 40",161 % of control
same,T/C,"dose: 44.0 mg/kg/injection, schedule: Q04DX003 (ip), vehicle: saline, evaluated on day 5","107, 114, 141, 208, 217, 235 % of control"
same,T/C,"dose: 44.0 mg/kg/injection, schedule: Q04DX003 (ip), vehicle: saline, evaluated on day 60","107, 114, 141, 208, 217, 235 % of control"
same,T/C,[5],"118, 155, 190, 194 % of control"
same,survivor count,[5],2 of 6
same,T/C,"dose: 45.0 mg/kg/injection, schedule: Q01DX010 (ip), vehicle: water","140, 181, 185, 204, 295, 300 % of control"
same,T/C,"dose: 50.0 mg/kg/injection, schedule: Q01DX001 (ip), vehicle: Klucel (hydroxypropylcellulose) (HPC), evaluated on day 30","98, 137, 151, 157, 163, 165, 173, 174, 175, 176, 177 (2×), 180, 182, 184, 186, 187 (2×), 188, 189, 191, 197 (2×), 204, 207, 208, 209, 213, 238 % of control"
same,T/C,"dose: 50.0 mg/kg/injection, schedule: Q01DX001 (ip), vehicle: Klucel (hydroxypropylcellulose) (HPC), evaluated on day 35",148 and 177 % of control
same,survivor count,"dose: 50.0 mg/kg/injection, schedule: Q01DX001 (ip), vehicle: Klucel (hydroxypropylcellulose) (HPC)",3 of 3
same,T/C,"dose: 50.0 mg/kg/injection, schedule: Q01DX001 (ip), vehicle: saline",126 % of control
same,T/C,"dose: 50.0 mg/kg/injection, schedule: Q01DX005 (ip), vehicle: Klucel (hydroxypropylcellulose) (HPC), evaluated on day 30","108, 122, 137, 140, 147, 204, 221, 222, 224, 226, 230, 235, 236, 238, 241 (2×), 243 (2×), 245 (2×), 250, 252, 256, 260, 262, 267 (2×), 270, 272, 272 [5 of 6 alive], 275, 277, 280 % of control"
